Assay results: the supplement of paper PMC10849652
The list shows a part of the results.

Sequences of proteins named here, by UniProt entry; tags and fusion partners are left off. A change or cut given only in a name is not applied to a line headed by its entry.
UniProt Q16626: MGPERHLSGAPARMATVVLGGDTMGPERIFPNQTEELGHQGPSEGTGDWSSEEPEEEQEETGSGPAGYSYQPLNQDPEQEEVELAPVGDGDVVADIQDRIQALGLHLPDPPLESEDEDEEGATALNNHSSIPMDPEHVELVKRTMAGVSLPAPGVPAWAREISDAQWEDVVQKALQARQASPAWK
UniProt Q9UHV7: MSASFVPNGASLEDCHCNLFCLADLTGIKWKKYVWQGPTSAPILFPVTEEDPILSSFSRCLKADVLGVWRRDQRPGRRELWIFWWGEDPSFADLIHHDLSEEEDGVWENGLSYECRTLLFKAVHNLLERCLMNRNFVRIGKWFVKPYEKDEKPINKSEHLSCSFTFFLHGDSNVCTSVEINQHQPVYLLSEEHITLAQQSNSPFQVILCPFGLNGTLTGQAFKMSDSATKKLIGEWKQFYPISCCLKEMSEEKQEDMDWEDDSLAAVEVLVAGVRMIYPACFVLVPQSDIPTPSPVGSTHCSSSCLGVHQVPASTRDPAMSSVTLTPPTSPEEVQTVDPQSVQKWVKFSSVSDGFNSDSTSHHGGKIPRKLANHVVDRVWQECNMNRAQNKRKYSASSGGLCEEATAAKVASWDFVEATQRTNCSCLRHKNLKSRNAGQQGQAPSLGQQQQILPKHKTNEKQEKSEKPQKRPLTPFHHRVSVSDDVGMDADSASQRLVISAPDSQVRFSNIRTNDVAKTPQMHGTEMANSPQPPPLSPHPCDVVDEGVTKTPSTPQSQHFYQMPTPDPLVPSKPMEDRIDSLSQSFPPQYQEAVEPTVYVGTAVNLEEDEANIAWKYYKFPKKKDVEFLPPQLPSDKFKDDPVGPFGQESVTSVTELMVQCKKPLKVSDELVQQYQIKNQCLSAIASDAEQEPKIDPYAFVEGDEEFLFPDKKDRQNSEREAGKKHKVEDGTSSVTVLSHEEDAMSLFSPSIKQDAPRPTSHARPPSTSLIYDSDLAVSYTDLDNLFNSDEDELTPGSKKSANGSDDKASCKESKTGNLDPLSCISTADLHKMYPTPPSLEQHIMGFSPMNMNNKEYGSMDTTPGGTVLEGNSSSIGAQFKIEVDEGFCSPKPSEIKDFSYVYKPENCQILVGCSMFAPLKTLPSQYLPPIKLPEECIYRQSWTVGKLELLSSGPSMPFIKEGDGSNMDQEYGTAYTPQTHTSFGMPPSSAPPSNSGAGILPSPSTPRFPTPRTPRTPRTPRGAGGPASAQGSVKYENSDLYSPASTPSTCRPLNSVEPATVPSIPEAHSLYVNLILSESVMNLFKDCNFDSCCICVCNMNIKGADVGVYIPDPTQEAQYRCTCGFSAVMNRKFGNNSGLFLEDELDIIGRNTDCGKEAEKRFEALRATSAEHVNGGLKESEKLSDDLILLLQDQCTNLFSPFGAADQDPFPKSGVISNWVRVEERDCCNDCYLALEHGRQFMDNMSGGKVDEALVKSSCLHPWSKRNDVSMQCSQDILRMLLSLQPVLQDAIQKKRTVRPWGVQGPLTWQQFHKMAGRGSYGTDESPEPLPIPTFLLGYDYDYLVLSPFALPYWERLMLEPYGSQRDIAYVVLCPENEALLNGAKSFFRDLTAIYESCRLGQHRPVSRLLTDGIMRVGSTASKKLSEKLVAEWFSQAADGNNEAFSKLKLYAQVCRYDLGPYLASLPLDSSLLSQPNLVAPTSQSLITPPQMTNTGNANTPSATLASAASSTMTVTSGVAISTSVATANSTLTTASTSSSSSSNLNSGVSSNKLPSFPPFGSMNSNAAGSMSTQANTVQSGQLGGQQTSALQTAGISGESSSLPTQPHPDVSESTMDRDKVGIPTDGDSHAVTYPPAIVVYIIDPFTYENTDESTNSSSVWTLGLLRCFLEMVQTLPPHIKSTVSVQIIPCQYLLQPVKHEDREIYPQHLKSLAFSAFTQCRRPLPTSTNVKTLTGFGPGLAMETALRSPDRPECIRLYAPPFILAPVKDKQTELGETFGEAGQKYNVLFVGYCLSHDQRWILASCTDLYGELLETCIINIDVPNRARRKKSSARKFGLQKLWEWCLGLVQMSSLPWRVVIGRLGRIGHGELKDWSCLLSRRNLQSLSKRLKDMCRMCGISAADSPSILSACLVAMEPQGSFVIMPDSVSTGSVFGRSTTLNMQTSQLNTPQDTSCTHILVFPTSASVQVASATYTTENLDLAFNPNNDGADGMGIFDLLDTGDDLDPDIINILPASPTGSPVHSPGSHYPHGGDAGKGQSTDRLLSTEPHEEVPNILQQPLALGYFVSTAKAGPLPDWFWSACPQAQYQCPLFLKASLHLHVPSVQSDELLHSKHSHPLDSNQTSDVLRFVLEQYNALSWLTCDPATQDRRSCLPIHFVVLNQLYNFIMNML
UniProt Q9UBP6: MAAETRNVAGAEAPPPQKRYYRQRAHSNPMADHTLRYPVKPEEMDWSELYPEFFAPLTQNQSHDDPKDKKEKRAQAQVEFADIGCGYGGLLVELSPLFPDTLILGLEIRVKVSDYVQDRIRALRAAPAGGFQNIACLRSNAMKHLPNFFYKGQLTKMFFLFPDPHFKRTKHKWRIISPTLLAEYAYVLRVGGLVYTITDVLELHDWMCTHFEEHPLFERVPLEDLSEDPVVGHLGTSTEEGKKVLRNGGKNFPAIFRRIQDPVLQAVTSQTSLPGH
UniProt Q6P9B6: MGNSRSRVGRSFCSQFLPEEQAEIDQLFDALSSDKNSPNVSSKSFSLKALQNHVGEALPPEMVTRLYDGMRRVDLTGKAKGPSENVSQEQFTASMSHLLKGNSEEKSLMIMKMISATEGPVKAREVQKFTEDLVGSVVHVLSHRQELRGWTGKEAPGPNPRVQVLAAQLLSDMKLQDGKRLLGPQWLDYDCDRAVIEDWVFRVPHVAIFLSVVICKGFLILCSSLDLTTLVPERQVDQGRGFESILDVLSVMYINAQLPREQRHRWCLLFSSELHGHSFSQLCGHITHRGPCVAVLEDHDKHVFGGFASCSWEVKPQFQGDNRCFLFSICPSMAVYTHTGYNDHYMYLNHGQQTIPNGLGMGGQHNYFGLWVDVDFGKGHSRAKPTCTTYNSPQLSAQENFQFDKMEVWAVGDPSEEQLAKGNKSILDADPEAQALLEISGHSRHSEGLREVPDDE
UniProt P33992: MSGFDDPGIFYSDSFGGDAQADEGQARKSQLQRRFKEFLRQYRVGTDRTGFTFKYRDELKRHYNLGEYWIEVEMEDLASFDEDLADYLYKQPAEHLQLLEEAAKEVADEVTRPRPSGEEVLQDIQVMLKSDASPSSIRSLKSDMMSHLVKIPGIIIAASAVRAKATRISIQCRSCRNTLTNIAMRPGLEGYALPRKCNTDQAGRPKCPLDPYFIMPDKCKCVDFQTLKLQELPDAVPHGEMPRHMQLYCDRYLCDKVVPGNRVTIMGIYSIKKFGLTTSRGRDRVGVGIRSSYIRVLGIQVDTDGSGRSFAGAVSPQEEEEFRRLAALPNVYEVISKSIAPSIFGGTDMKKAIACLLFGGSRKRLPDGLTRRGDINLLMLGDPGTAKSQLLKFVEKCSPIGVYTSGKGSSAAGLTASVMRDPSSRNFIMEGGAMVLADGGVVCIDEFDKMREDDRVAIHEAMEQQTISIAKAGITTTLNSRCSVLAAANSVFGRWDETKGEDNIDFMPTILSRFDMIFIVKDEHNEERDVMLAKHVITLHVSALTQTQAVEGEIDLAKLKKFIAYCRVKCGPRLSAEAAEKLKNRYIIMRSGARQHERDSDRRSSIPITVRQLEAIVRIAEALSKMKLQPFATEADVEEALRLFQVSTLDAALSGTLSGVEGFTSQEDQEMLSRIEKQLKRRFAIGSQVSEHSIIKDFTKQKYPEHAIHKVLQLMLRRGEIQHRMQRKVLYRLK
UniProt Q9Y4C4: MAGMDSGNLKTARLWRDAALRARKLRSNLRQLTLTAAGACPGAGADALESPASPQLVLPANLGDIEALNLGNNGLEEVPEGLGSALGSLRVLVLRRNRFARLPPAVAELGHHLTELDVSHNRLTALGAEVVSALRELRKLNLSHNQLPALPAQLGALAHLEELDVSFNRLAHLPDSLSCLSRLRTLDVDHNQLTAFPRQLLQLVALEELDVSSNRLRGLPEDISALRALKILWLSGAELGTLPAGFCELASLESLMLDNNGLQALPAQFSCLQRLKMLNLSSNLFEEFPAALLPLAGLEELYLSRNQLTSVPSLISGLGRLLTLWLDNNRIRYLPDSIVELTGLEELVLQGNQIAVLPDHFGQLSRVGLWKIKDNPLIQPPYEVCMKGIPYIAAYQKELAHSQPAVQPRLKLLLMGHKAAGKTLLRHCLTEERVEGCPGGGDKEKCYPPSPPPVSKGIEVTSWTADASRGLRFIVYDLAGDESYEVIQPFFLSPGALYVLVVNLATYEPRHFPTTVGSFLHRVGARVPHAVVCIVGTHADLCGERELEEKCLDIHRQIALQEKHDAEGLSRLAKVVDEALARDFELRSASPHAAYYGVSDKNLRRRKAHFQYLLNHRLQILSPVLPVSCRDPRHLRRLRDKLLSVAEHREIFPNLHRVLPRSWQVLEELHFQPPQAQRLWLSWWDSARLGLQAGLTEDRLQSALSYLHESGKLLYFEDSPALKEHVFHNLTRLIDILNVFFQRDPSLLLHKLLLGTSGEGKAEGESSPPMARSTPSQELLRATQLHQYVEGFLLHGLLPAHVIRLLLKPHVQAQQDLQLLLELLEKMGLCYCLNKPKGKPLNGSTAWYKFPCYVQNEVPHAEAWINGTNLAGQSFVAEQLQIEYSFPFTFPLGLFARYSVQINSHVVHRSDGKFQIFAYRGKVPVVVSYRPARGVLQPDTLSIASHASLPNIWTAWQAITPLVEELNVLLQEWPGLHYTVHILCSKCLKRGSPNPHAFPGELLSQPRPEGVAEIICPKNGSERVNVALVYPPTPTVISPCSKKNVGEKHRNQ
UniProt Q6P1Q9: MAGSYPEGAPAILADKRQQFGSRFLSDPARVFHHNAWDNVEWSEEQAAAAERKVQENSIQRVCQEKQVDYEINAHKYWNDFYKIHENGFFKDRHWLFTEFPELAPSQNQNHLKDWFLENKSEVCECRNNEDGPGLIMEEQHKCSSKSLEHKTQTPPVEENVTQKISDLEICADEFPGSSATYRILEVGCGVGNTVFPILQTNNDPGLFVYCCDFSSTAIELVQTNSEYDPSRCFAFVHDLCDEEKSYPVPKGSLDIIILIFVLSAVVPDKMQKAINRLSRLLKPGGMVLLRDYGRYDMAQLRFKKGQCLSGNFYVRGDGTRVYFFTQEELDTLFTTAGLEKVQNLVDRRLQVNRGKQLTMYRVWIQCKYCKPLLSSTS
UniProt Q9H1A3: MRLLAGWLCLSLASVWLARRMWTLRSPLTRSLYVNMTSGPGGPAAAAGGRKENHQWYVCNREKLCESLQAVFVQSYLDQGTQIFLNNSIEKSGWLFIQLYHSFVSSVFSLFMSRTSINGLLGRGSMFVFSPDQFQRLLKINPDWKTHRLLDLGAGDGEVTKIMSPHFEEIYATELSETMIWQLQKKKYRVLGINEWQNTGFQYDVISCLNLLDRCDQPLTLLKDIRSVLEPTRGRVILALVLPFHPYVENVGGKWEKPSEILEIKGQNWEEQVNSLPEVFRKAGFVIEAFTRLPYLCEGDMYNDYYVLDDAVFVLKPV
UniProt Q8NHS3: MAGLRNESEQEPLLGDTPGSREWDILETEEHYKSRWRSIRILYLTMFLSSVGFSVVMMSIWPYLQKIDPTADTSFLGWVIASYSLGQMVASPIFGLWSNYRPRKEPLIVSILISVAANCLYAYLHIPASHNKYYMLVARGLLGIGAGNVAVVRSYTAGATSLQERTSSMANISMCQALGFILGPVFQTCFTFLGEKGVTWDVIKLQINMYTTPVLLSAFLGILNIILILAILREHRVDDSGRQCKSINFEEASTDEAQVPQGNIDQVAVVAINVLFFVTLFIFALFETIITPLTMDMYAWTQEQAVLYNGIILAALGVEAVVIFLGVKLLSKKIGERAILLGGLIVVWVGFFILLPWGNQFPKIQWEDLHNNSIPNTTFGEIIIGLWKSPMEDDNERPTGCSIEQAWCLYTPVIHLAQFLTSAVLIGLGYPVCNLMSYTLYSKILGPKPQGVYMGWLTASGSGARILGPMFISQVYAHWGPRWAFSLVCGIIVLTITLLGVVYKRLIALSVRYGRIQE

Columns and labels:
Assay in all cases: log2 fold change, soluble protein after heating vs DMSO (PISA); higher = thermal stabilisation; K562 lysate, 10 uM; active = over 0.2 and 3.5 SD of the protein, either way, in both replicates (recomputed)
[1] = compound: C=CC(=O)N1CCC[C@@H](n2nc(-c3ccc(Oc4ccccc4)cc3)c3c(N)ncnc32)C1 [ibrutinib]
How it was run: (§1)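 Quantification was by TMTpro 16plex LC-MS/MS with equalised channel sums, applied to the supernatant after 21,000xg for 90 min. Samples were crude K562 extract at 1 mg/mL protein in PBS pH 7.4 with 1 mM MgCl2, treated with 10 μM compound for 30 min, heated for 3 min across 48°C-58°C, pooled and brought to 0.5% NP-40 at 4°C. Values are log-two fold changes in thermal stability relative to solvent controls, from duplicates.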

[2] = compound: CC(=O)c1cnc2ccc(-c3cc(Cl)c(O)c(Cl)c3)nc2c1N[C@H]1CC[C@H](CN(C)C)CC1
How it was run: as §1

[3] = compound: CC(C)(C)Cn1c(N)nc2ccc(-c3[nH]c(C(C)(C)C)nc3-c3ccc(F)cc3)nc21 [ralimetinib]
How it was run: as §1

[4] = compound: CC(C)(O)CC(=O)NCCn1ccc2ncnc(Nc3ccc(Oc4cccc(C(F)(F)F)c4)c(Cl)c3)c21
How it was run: as §1

[5] = compound: CC(C)C1=C2N=C(C=C(N2N=C1)NCC3=CC=CC=C3)NCCCCCCN
How it was run: as §1

[6] = compound: CC1=C(C2=C(C=C1)C(=O)C3=CC=CC=C3N2CCCN)C
How it was run: as §1

[7] = compound: CC1=C(C=C(C=C1)NC(=O)C2=CC(=CC=C2)C(C)(C)C#N)NC3=CC4=C(C=C3)N=CN(C4=O)C
How it was run: as §1

[8] = compound: CC1=C(C=C(C=C1)NC(=O)C2=CC(=CC=C2)N(C)C)NC(=O)C3=CC=C(C=C3)O
How it was run: as §1

[9] = compound: CC1=CC=C(C=C1)SC2=C3C=C(SC3=CN=C2)C(=O)N
How it was run: as §1

[10] = compound: CCCS(=O)(=O)Nc1ccc(F)c(C(=O)c2c[nH]c3ncc(-c4ccc(Cl)cc4)cc23)c1F [vemurafenib]
How it was run: as §1

[11] = compound: CCCS(=O)(=O)Nc1ccc(F)c(C(=O)c2c[nH]c3ncc(Cl)cc23)c1F
How it was run: as §1

[12] = compound: CCN(CCCOc1ccc2c(Nc3cc(CC(=O)Nc4cccc(F)c4)[nH]n3)ncnc2c1)CCOP(=O)(O)O [barasertib]
How it was run: as §1

[13] = compound: CC[C@@H]1C(=O)N(C)c2cnc(Nc3ccc(C(=O)NC4CCN(C)CC4)cc3OC)nc2N1C1CCCC1
How it was run: as §1

[14] = compound: CC[C@@H]1C(=O)N(C)c2cnc(Nc3ccc(C(=O)N[C@H]4CC[C@H](N5CCN(CC6CC6)CC5)CC4)cc3OC)nc2N1C(C)C [volasertib]
How it was run: as §1

[15] = compound: CCn1c(C(=O)N(C2CC2)C2CC2)cc2c3c(ncn3C)c(Nc3cc(C)n(C)n3)nc21
How it was run: as §1

[16] = compound: CCn1cc(-c2ccnc3[nH]c(-c4cccc(CN(C)C)c4)cc23)c(-c2ccc(NC(=O)N(C)C)cc2)n1
How it was run: as §1

[17] = compound: CN1CCC(CNc2ccc3ncc(-c4cccc(OC(F)(F)F)c4)n3n2)CC1
How it was run: as §1

[18] = compound: CN1CCN(CCOc2cc(OC3CCOCC3)c3c(Nc4c(Cl)ccc5c4OCO5)ncnc3c2)CC1 [saracatinib]
How it was run: as §1

[19] = compound: CN1CCN(c2nc(C3=C(c4c[nH]c5ccccc45)C(=O)NC3=O)c3ccccc3n2)CC1 [sotrastaurin]
How it was run: as §1

[20] = compound: CC1=C(C(CC(=O)N1)C2=CC=C(C=C2)C(F)(F)F)C(=O)NC3=C(C=C4C(=C3)C=NN4)F
How it was run: as §1

Measured: log2 fold change

METTL26 (UniProt Q96S19)
inactive: [1] 0.058 | [2] 0 | [3] -0.017 | [4] -0.005 | [5] -0.046 | [6] -0.069 | [7] -0.036 | [8] 0.011 | [9] 0.023 | [10] -0.171 | [11] -0.015 | [12] 0.141 | [13] -0.067 | [14] 0.039 | [15] 0.073 | [16] -0.023 | [17] -0.075 | [18] -0.018 | [19] -0.01

MEGF8 (UniProt Q7Z7M0)
inactive: [1] 0 | [3] -0.019 | [4] -0.124 | [5] -0.057 | [6] 0.091 | [7] 0.079 | [8] 0.154 | [12] 0.049 | [13] 0.076 | [15] -0.048 | [16] 0.124 | [17] 0.028 | [18] 0.283 | [19] -0.003

MEA1 (UniProt Q16626)
inactive: [1] -0.034 | [2] -0.026 | [3] 0.025 | [4] -0.009 | [5] -0.014 | [20] 0.059 | [6] 0.045 | [7] 0.051 | [8] -0.002 | [9] 0.078 | [10] 0.071 | [11] -0.041 | [12] 0.018 | [13] 0.042 | [14] 0.062 | [15] 0.021 | [16] -0.08 | [17] -0.027 | [18] 0 | [19] -0.003

MED13 (UniProt Q9UHV7)
inactive: [1] -0.033 | [2] -0.021 | [3] 0.036 | [4] -0.045 | [5] -0.003 | [20] 0.049 | [6] 0 | [7] 0.042 | [8] -0.048 | [9] 0.031 | [10] 0.103 | [11] 0.031 | [12] 0.042 | [13] -0.003 | [14] -0.059 | [15] -0.012 | [16] -0.045 | [17] 0.012 | [18] 0.03 | [19] -0.028

METTL1 (UniProt Q9UBP6)
inactive: [1] 0.011 | [2] 0.016 | [3] 0.004 | [4] 0.052 | [5] -0.005 | [20] 0.005 | [6] 0.025 | [7] -0.029 | [8] -0.016 | [9] 0.045 | [10] -0.049 | [11] -0.074 | [12] -0.031 | [13] 0.015 | [14] -0.028 | [15] 0 | [16] -0.027 | [17] 0.068 | [18] 0.029 | [19] 0.05

MEAK7 (UniProt Q6P9B6)
inactive: [1] 0.01 | [2] 0.015 | [3] -0.029 | [4] -0.002 | [5] -0.052 | [20] -0.012 | [6] -0.018 | [7] 0.014 | [8] 0.036 | [9] -0.028 | [10] -0.045 | [11] 0.034 | [12] -0.033 | [13] -0.026 | [14] -0.052 | [15] -0.009 | [16] 0.034 | [17] 0.01 | [18] 0.021 | [19] 0.006

MCM5 (UniProt P33992)
inactive: [1] 0.004 | [2] -0.015 | [3] -0.006 | [4] 0.038 | [5] 0.003 | [20] -0.023 | [6] -0.017 | [7] -0.003 | [8] -0.01 | [9] 0.022 | [10] -0.027 | [11] 0.003 | [12] 0.022 | [13] -0.024 | [14] -0.004 | [15] 0.012 | [16] -0.013 | [17] -0.005 | [18] -0.021 | [19] 0.029

MFHAS1 (UniProt Q9Y4C4)
inactive: [1] 0.526 | [2] 0.26 | [3] 0.009 | [4] -0.233 | [5] 0.019 | [6] -0.118 | [7] 0.115 | [8] -0.026 | [9] 0.258 | [10] 0.005 | [11] 0.12 | [12] -0.099 | [14] 0.087 | [15] -0.051 | [18] 0.081 | [19] -0.108

METTL2B (UniProt Q6P1Q9)
inactive: [1] 0.056 | [2] -0.076 | [6] 0.175 | [7] -0.114 | [9] 0.075 | [11] 0.008 | [12] -0.019 | [14] -0.126 | [16] 0.11 | [17] 0.025 | [18] 0.108 | [19] 0.148

METTL9 (UniProt Q9H1A3)
inactive: [1] 0.058 | [2] 0.008 | [3] -0.013 | [4] 0.013 | [5] -0.027 | [20] -0.062 | [6] -0.079 | [7] 0.088 | [8] 0.037 | [9] 0.07 | [11] 0.116 | [12] 0.098 | [14] -0.186 | [15] 0.203 | [16] -0.115 | [17] -0.129 | [18] -0.108 | [19] -0.075

MFSD8 (UniProt Q8NHS3)
inactive: [1] 0.032 | [2] -0.015 | [3] 0.032 | [4] 0.009 | [5] 0.087 | [20] -0.017 | [7] -0.047 | [8] -0.033 | [9] 0.033 | [10] 0.036 | [11] 0.088 | [12] 0.186 | [14] -0.023 | [15] 0.017 | [16] -0.14 | [17] 0.07 | [19] 0.054
